Data: the supplement of paper PMC11348887
Structures can show the parent of a compound that is named as a salt. This is one part of the list. Most entries show no effect beyond the scatter of the controls.

Tested on: hPSC-derived cortical neurons (WA09)
Assay: nucleus roundness z-score vs screen plate; higher = rounder nuclei (more mature)
Conditions: 5 µM; treatment: days 7-14 after plating, readout day 21

| Compound | nucleus roundness z-score |
| --- | --- |
| Cc1coc2c1C(=O)C(=O)c1c-2ccc2c1CCCC2(C)C [Tanshinone IIA] | 0.704 |
| Cc1ccc2nc(CN(CCN(Cc3nc4ccc(C)cc4[nH]3)Cc3nc4ccc(C)cc4[nH]3)Cc3nc4ccc(C)cc4[nH]3)[nH]c2c1 | 0.0134 |
| CC(C)[C@H](N)C(=O)OCC(CO)OCn1cnc2c(=O)[nH]c(N)nc21 (stereo not given in full) [Valganciclovir HCl] | -0.284 |
| CN(C)CC/C=C1/c2ccccc2Sc2ccc(Cl)cc21 [Chlorprothixene] | -0.392 |
| CCOC(N)=O [Urethane] | -5.14 |
| O=C(NCc1ccncc1)C12CC3CC(C1)CC(c1ccc(Cl)cc1)(C3)C2 | -0.631 |
| N[C@@H]1CONC1=O [D-Cycloserine] | -0.0793 |
| O=S(=O)(O)CCSSCCS(=O)(=O)O [Dimesna] | 0.69 |
| Cc1cn(-c2cc(NC(=O)c3ccc(C)c(Nc4nccc(-c5cnccn5)n4)c3)cc(C(F)(F)F)c2)cn1 [Radotinib] | -0.466 |
| Cc1cc(O)c2c(c1)C(=O)c1cccc(O)c1C2=O [Chrysophanic Acid] | 0.381 |
| O=C(/C=C/c1ccc(O)c(O)c1)c1ccc(O)cc1O [Butein] | 3.01 |
| NC(=O)Nc1cc(-c2cccc(F)c2)sc1C(=O)N[C@H]1CCCNC1 | 0.949 |
| CN1CCN(CCCN2c3ccccc3Sc3ccc(Cl)cc32)CC1 [Prochlorperazine dimaleate salt] | 0.607 |
| CCCCCCCCOc1ccccc1C(=O)Nc1ccc(C(=O)OCC[N+](C)(CC)CC)cc1 [Otilonium Bromide] | -5.58 |
| COc1cc([C@@H]2c3cc4c(cc3[C@@H](O[C@@H]3O[C@@H]5CO[C@@H](C)O[C@H]5[C@H](O)[C@H]3O)[C@H]3COC(=O)[C@H]23)OCO4)cc(OC)c1O [Etoposide] | 1.44 |
| O=C1NCCCc2c1oc1ccc(O)cc21 | 0.775 |
| CN[C@@H](C)C(=O)N[C@H](C(=O)N1CCC[C@H]1C(=O)Nc1snnc1-c1ccccc1)C1CCCCC1 | 0.378 |
| CC1=CC(=O)c2ccccc2C1=O [Menadione] | -0.639 |
| CCCN1CCCC[C@H]1C(=O)Nc1c(C)cccc1C [Ropivacaine HCl] | -0.279 |
| N#CC1(c2ccc(NC(=O)c3cccnc3NCc3ccncc3)cc2)CCCC1 [Apatinib] | -0.876 |

| Compound | nucleus roundness z-score |
| --- | --- |
| CC(C)[N+]1(C)[C@@H]2CC[C@H]1C[C@@H](OC(=O)C(CO)c1ccccc1)C2 (stereo not given in full) [Ipratropium Bromide] | -0.6 |
| COCCCOc1cc(C[C@@H](C[C@H](N)[C@@H](O)C[C@H](C(=O)NCC(C)(C)C(N)=O)C(C)C)C(C)C)ccc1OC [Aliskiren Hemifumarate] | -0.204 |
| O=C(N[C@H](CO)[C@H](O)c1ccc([N+](=O)[O-])cc1)C(Cl)Cl [Chloramphenicol] | -0.253 |
| CCCCC1C(=O)N(c2ccccc2)N(c2ccccc2)C1=O [Phenylbutazone] | -0.947 |
| CCN[C@H]1CN(CCCOC)S(=O)(=O)c2sc(S(N)(=O)=O)cc21 [Brinzolamide] | 0.581 |
| O=C(O)CC1CC(c2ccccc2)=NO1 (stereo not given) | 1.58 |
| CN(C)CCCN1c2ccccc2CCc2ccc(Cl)cc21 [Clomipramine HCl] | -1.42 |
| COc1cc(OC)c2c(=O)[nH]c(-c3cc(C)c(OCCO)c(C)c3)nc2c1 | -1.17 |
| CC(=O)N1CCN(CCOc2ccc(C3CCN(C4=Nn5c(nnc5C(F)(F)F)CC4)CC3)cc2)CC1 | -0.338 |
| CCCCCCCCCCC[C@@H](C[C@@H]1OC(=O)[C@H]1CCCCCC)OC(=O)[C@H](CC(C)C)NC=O [Orlistat] | -0.324 |
| CCN(CC)CCNC(=O)c1c(C)[nH]c(/C=C2\C(=O)Nc3ccc(F)cc32)c1C [Sunitinib] | -6.07 |
| CC[C@@H]1C(=O)N(C)c2cnc(Nc3ccc(C(=O)N[C@H]4CC[C@H](N5CCN(CC6CC6)CC5)CC4)cc3OC)nc2N1C(C)C [Volasertib (BI 6727)] | -5.14 |
| CCN1CCN(Cc2ccc(Nc3ncc(F)c(-c4cc(F)c5nc(C)n(C(C)C)c5c4)n3)nc2)CC1 | -3.9 |
| COC(=O)N[C@H](C(=O)N[C@@H](Cc1ccccc1)[C@@H](O)CN(Cc1ccc(-c2ccccn2)cc1)NC(=O)[C@@H](NC(=O)OC)C(C)(C)C)C(C)(C)C [Atazanavir Sulfate] | -0.233 |
| COC(=O)C1=CO[C@@H](O)[C@@H]2C(CO)=CC[C@H]12 [Genipin] | 0.837 |
| CC1(C)Cc2c(-c3ccccc3)c(-c3ccc(Cl)cc3)c(CC(=O)O)n2C1 [Licofelone] | 0.291 |
| OC(CNCC(O)C1CCc2cc(F)ccc2O1)C1CCc2cc(F)ccc2O1 (stereo not given) [Nebivolol] | -0.627 |
| CCN(CC)CCCC(C)Nc1c2ccc(Cl)cc2nc2ccc(OC)cc12 (stereo not given) [Quinacrine 2HCl] | -5.56 |
| OCc1cc(C(O)CNCCCCCCOCCCCc2ccccc2)ccc1O (stereo not given) [Salmeterol Xinafoate] | -0.613 |
| CNC(=O)c1cc(Oc2ccc(NC(=O)Nc3ccc(Cl)c(C(F)(F)F)c3)cc2)ccn1 [Sorafenib] | -2.02 |

Quoted at random: 2 compounds from above

| Compound | nucleus roundness z-score |
| --- | --- |
| CCN[C@H]1CN(CCCOC)S(=O)(=O)c2sc(S(N)(=O)=O)cc21 [Brinzolamide] | 0.581 |
| CC(C)[N+]1(C)[C@@H]2CC[C@H]1C[C@@H](OC(=O)C(CO)c1ccccc1)C2 (stereo not given in full) [Ipratropium Bromide] | -0.6 |
